Measured values reported in patent US12636342B2, “TARS derived from Akkermansia muciniphila or fragment thereof, and use thereof” (KOREA RESEARCH INSTITUTE OF BIOSCIENCE AND BIOTECHNOLOGY, priority 2020, dated 2026).
At least one compound was matched to its structure with a doubt left.

Tested on: BMDMs
Experiment: AmTARS-stimulated BMDMs pre-treated with kinase/CREB inhibitors
Type: cell-based, mouse
Procedure: (A and B) Analysis of key molecules that inhibit the MAPK and PI3K/AKT signaling pathways. IL-10 produced by BMDMs pre-treated with inhibitors of ERK (PD98059, […]), p38 (SB203580, […]), MSK1/2 (SB747651A, 10 μM), CREB (666-15, 1 μM), PI3K (Wortmannin, 10 μM), and AKT1/2 (AKT1/2, 10 μM) for 1 h before treatment with either PBS or AmTARS for 24 h (n=6 per group) (A). Flow cytometry analysis of M2 macrophages in BMDMs pre-treated for 1 h with the indicated kinase inhibitors, before treatment with either PBS or AmTARS for 24 h (n=3 per group) (B). (C and D) Western blot analysis of MAPK signaling molecules in lysates of BMDMs (C) or THP1 cells (D) treated for different times with 0.5 μM AmTARS. […] Activation of AKT, ERK, and CREB was measured by western blot analysis of lysates of THP1 cells pre-treated with α-IgG, α-TLR1, α-TLR2, or α-TLR6 (1 μg ml-1) for 1 h before treatment for 30 min with PBS or AmTARS (0.5 µM). […] P-values were calculated using an unpaired two-tailed Student's t-test. […]
To identify the signaling pathway triggered by AmTARS, we first evaluated kinases and CREB. IL-10 production and M2 polarization were measured in BMDMs treated with inhibitors of ERK (PD98059), p38 (SB203580), MSK1/2 (SB747651A), CREB (666-15), PI3K (Wortmannin) and AKT (AKT1/2) before subsequent stimulation with AmTARS.

## COC[C@H]1OC(=O)c2coc3c2[C@@]1(C)C1=C(C3=O)[C@@H]2CCC(=O)[C@@]2(C)C[C@H]1OC(C)=O [Wortmannin]
BMDMs pre-treated 1 h with inhibitor (10 μM; 666-15 1 μM) before AmTARS 24 h
  IL-10 production by AmTARS: significant suppression
BMDMs pre-treated 1 h with inhibitor before AmTARS 24 h
  macrophage polarization (CD206 positive) by AmTARS: significant suppression
